# In publication PMC6346213:
# Amino acid sequences for entries named in this document (tags omitted). A change or cut given only in a name is not applied to a line headed by its entry. Residues count along the entry.
# UniProt Q99627: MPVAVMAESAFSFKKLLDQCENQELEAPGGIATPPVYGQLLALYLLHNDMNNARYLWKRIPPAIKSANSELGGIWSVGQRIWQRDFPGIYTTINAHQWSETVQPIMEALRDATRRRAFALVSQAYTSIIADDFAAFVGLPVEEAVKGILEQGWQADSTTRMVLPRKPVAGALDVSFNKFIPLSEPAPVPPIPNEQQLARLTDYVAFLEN
# Strep(II)-CSN8 (human, baculoviral co-expression): residues 2-209 of Q99627
# UniProt Q13098: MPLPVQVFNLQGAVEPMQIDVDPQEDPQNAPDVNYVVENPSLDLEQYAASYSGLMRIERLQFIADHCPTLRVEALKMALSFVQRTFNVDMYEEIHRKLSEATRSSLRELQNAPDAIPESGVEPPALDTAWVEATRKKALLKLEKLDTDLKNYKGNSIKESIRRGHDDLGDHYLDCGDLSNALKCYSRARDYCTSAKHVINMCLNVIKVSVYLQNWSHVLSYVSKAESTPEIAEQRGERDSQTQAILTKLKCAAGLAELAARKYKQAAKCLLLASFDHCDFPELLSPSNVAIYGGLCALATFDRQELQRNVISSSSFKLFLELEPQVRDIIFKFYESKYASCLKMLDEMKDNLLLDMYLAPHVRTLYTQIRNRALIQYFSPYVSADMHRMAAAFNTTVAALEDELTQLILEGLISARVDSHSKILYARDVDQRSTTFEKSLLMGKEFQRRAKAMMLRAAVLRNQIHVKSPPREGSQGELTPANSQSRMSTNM
# UniProt Q9UNS2: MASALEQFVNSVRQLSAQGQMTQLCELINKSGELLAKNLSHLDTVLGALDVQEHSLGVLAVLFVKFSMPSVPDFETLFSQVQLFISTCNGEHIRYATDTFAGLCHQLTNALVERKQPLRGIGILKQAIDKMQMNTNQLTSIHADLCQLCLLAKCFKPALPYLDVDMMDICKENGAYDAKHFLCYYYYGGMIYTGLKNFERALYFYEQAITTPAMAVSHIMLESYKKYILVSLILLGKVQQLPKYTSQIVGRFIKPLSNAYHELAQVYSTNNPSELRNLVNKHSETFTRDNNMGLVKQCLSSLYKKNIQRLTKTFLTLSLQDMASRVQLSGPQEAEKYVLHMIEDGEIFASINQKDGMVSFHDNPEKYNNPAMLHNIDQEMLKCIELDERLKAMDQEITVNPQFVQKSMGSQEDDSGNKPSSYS
# Results are given in words; binding and its absence hold for the method and conditions named. For part of these data: In cells and extracts the contact can be indirect. Some results given as binding are weak or reduced against the parent protein; the word gives no strength.
# What was measured:
# [1] = molecular target: Strep(II)-CSN8 (human, baculoviral co-expression) (human) (UniProt Q99627); test: pull-down; baculoviral co-expression in Sf21VM cells, mild lysis after 48 h, differential affinity purification on StrepTactin and Ni-NTA magnetic beads, SDS-PAGE with InstantBlue staining
# [2] = molecular target: COP9 signalosome subunit CSN8 (human (endogenous in HEK293)) (UniProt Q99627); test: SEC; 1 mg HEK293 lysate fractionated by SEC as for SEC-SWATH-MS; fractions of the CSN range run on SDS-PAGE and immunoblotted for CSN1, CSN3, CSN8, CSN4, CSN5, CSN7A; two independent replicates
# [3] = molecular target: COP9 signalosome subunit CSN8 (human (endogenous in HEK293)) (UniProt Q99627); test: SEC; co-fractionation of native HEK293 lysate (freeze-thaw, 0.5% NP-40); Yarra-SEC-4000, 50 mM HEPES pH 7.5, 150 mM NaCl, 4°C; 81 fractions quantified by SWATH-MS; co-elution of protein profiles scored with CCprofiler (5% FDR) and by manual inspection
Substance,binding [1],binding [2],binding [3]
"His6-CSN1 (human, baculoviral co-expression) (from UniProt Q13098 1-491)",binds,,
"His6-CSN3 (human, baculoviral co-expression) (from UniProt Q9UNS2 1-423)",binds,,
COP9 signalosome subunit CSN1 (from UniProt Q13098 1-491),,binds,binds
COP9 signalosome subunit CSN3 (from UniProt Q9UNS2 1-423),,binds,binds
